{"source": "PubChem BioAssay AID1259254 (NCATS, 2017)", "test": "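Genome-wide screen for genes that prevent DNA re-replication in cancer cells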 (primary screen)", "cells": "human HCT116 colorectal cancer cells", "reagents": "single siRNA against human genes", "timing": "3 days", "detection": "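Imaged Hoechst DNA stain sorts each cell into a cycle phase by DNA amount; per plate, G2 fraction set to 0% for non-targeting and 100% for GMNN siRNA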", "scale": "G2 robust z-score and G2 cells, % of GMNN control: higher = more G2 cells, more excess DNA replication", "call rule": "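An siRNA counts as active if its G2 robust z-score lies at least 5 MADs above the screen median; here such calls match roughly 38% of GMNN control or more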", "note": "Shown is an unselected part of about 59,000 reagents tested. About 1,550 of all reagents (2.6%) were called active. 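G2 share is only a proxy for re-replication; each gene was hit by three separate siRNAs, and active genes were retested.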 Reagents against one gene are numbered here. Further read-outs or replicates are left out here. Reagent sequences are not shown. The record does not give: the amount of reagent."}
The opening 2 records, to show the layout:
{"gene":"NDE1","siRNA no.":1,"G2 robust z-score":-1.33,"G2 cells, % of GMNN control":-6.37,"Outcome":"inactive"}
{"gene":"NDE1","siRNA no.":2,"G2 robust z-score":1.78,"G2 cells, % of GMNN control":15.5,"Outcome":"inactive"}

Main list, from the first entry:
{"gene":"NDE1","siRNA no.":1,"G2 robust z-score":-1.33,"G2 cells, % of GMNN control":-6.37,"Outcome":"inactive"}
{"gene":"NDE1","siRNA no.":2,"G2 robust z-score":1.78,"G2 cells, % of GMNN control":15.5,"Outcome":"inactive"}
{"gene":"NDE1","siRNA no.":3,"G2 robust z-score":-0.0966,"G2 cells, % of GMNN control":2.29,"Outcome":"inactive"}
{"gene":"OLFML3","siRNA no.":1,"G2 robust z-score":1.65,"G2 cells, % of GMNN control":14.6,"Outcome":"inactive"}
{"gene":"OLFML3","siRNA no.":2,"G2 robust z-score":-0.47,"G2 cells, % of GMNN control":-0.34,"Outcome":"inactive"}
{"gene":"OLFML3","siRNA no.":3,"G2 robust z-score":0.98,"G2 cells, % of GMNN control":9.86,"Outcome":"inactive"}
{"gene":"DMKN","siRNA no.":1,"G2 robust z-score":-0.828,"G2 cells, % of GMNN control":-2.86,"Outcome":"inactive"}
{"gene":"DMKN","siRNA no.":2,"G2 robust z-score":-0.218,"G2 cells, % of GMNN control":1.44,"Outcome":"inactive"}
{"gene":"DMKN","siRNA no.":3,"G2 robust z-score":1.73,"G2 cells, % of GMNN control":15.2,"Outcome":"inactive"}
{"gene":"SLC5A6","siRNA no.":1,"G2 robust z-score":3.59,"G2 cells, % of GMNN control":28.3,"Outcome":"inactive"}
{"gene":"SLC5A6","siRNA no.":2,"G2 robust z-score":-0.427,"G2 cells, % of GMNN control":-0.0351,"Outcome":"inactive"}
{"gene":"SLC5A6","siRNA no.":3,"G2 robust z-score":-0.126,"G2 cells, % of GMNN control":2.08,"Outcome":"inactive"}
{"gene":"NPM3","siRNA no.":1,"G2 robust z-score":-0.64,"G2 cells, % of GMNN control":-1.53,"Outcome":"inactive"}
{"gene":"NPM3","siRNA no.":2,"G2 robust z-score":-1.3,"G2 cells, % of GMNN control":-6.18,"Outcome":"inactive"}
{"gene":"NPM3","siRNA no.":3,"G2 robust z-score":-0.744,"G2 cells, % of GMNN control":-2.27,"Outcome":"inactive"}
{"gene":"PKLR","siRNA no.":1,"G2 robust z-score":-1.23,"G2 cells, % of GMNN control":-5.66,"Outcome":"inactive"}
{"gene":"PKLR","siRNA no.":2,"G2 robust z-score":-0.0167,"G2 cells, % of GMNN control":2.85,"Outcome":"inactive"}
{"gene":"PKLR","siRNA no.":3,"G2 robust z-score":-0.421,"G2 cells, % of GMNN control":0.00263,"Outcome":"inactive"}
{"gene":"OGDHL","siRNA no.":1,"G2 robust z-score":1.27,"G2 cells, % of GMNN control":11.9,"Outcome":"inactive"}
{"gene":"OGDHL","siRNA no.":2,"G2 robust z-score":-0.818,"G2 cells, % of GMNN control":-2.79,"Outcome":"inactive"}
{"gene":"OGDHL","siRNA no.":3,"G2 robust z-score":0.00988,"G2 cells, % of GMNN control":3.04,"Outcome":"inactive"}
{"gene":"PML","siRNA no.":1,"G2 robust z-score":1.1,"G2 cells, % of GMNN control":10.7,"Outcome":"inactive"}
{"gene":"PML","siRNA no.":2,"G2 robust z-score":5.14,"G2 cells, % of GMNN control":39.1,"Outcome":"active"}
{"gene":"PML","siRNA no.":3,"G2 robust z-score":-1.19,"G2 cells, % of GMNN control":-5.39,"Outcome":"inactive"}
